Reference: PubChem BioAssay AID488837 (National Center for Advancing Translational Sciences (NCATS), 2010)
Screen size: about 330,000 compounds; about 20 (0.006%) were called active. This list was built around the results that the source calls inconclusive (neither active nor inactive); the mix of calls is not that of the screen. Calls follow the shape of the dose curve; as a rule, active = well fitted inhibition curve with a large enough effect; inconclusive = small, poorly fitted or top-dose-only effect, or effect the other way; inactive = flat fitted curve, though single readings scatter. A potency beside an inconclusive call is a rough fit, not a confirmed value.
% is scaled to controls: 0 for no effect and ±100 for the full control effect; potency is read from the fitted curve at half-maximal effect.

By UniProt entry, the sequences of proteins in these tests, tags left out. Where a name states a change or a piece, a line headed by the entry shows the natural chain unless it says otherwise.
UniProt O00167: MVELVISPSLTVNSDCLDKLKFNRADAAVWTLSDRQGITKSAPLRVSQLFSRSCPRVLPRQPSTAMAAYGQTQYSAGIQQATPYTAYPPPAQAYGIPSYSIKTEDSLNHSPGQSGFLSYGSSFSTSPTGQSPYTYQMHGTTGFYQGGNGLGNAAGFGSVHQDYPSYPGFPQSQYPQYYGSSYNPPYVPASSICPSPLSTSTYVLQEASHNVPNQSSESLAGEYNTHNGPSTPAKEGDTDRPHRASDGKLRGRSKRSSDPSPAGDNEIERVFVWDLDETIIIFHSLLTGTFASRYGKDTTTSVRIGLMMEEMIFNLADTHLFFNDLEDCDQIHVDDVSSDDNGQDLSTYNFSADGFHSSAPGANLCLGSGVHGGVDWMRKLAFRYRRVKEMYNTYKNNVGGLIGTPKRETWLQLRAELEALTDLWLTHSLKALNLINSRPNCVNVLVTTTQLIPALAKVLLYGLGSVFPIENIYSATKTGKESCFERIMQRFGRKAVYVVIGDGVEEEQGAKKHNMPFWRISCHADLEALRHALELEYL

These compounds were tested against Protein phosphatase EYA2 (Homo sapiens) (UniProt O00167) (assay: qHTS Assay for Inhibitors of the Phosphatase Activity of Eya2). Settings: recombinant Eya2, OMFP fluorescence dephosphorylation (OMFP is methylfluorescein phosphate); activity, negative = inhibition: at 76.9 µM (top of the series) unless noted.
How it was run: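 Eya2 protein (added as 0.2 uM solution) was preincubated with compound for 10 min at ambient temperature in 50 mM HEPES pH 7.5, 50 mM NaCl, 5 uM MgCl2, 0.05% BSA, 1 mM DTT. OMFP (added at 50 uM) then reacted 10 min; fluorescence read at 485/525 nm.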
With `C[C@H](CO)N1C[C@H](C)[C@@H](CN(C)S(=O)(=O)c2ccc(F)cc2)Oc2c(NC(=O)CCC(F)(F)F)cccc2C1=O` the Potency was inconclusive: 25.1 µM [inhibitor, partial curve].
With `CCN(CC)c1ccc(S(=O)(=O)N2CCOCC2)cc1NC(=O)CSc1cccc[n+]1[O-]` the Potency was “inactive”.
In the case of `N#C/C(=C\c1ccncc1)c1nc2ccccc2c(=O)[nH]1`, the Potency is reported as “inactive”.
With `CCn1c(SCC(=O)N/N=C/C(C)=C/c2ccco2)nnc1-c1ccccc1` the Potency was “inactive”.
`O=C(O)C1C2CCC(C2)C1C(=O)Nc1cccc([N+](=O)[O-])c1` (centres undefined) was tested, and the Potency was inconclusive: 100 µM [inhibitor, single point].
For `COc1ccccc1OCCCCOc1ccccc1F`, the Potency was inconclusive: 20 µM [inhibitor, partial curve, poor fit].
With `CC#CC(=O)NCC1(N(C)Cc2ccccc2)Cc2ccccc2C1` the Potency was inconclusive: 17.8 µM [inhibitor, single point].
`O=c1[nH]c2cc3c(cc2cc1CN(Cc1ccccc1)Cc1nnnn1Cc1ccco1)OCCO3` was tested, and the Potency was “inactive”.
For `CCOC(=O)c1c(/N=C/c2cc([N+](=O)[O-])ccc2O)sc(C)c1C`, the Potency was “inactive”.
With `CSS(=O)(=O)c1cccc2cccnc12` the Potency was inconclusive: 25.1 µM [inhibitor, partial curve].
For `CCn1cc(C(=O)N2CCN(c3cccc(Cl)c3)CC2)c2cc(OC)c(OC)cc2c1=O`, the Potency was “inactive”.
For `O=C(CN1CCCc2ccccc21)N/N=C/c1ccc(F)cc1F`, the Potency was “inactive”.
For `O=C(Nc1cccc(F)c1)Nc1ccccn1`, the Potency was inconclusive: 31.6 µM [inhibitor, partial curve].
`Cc1ccc(NC(=O)c2cc([N+](=O)[O-])ccc2NCc2cccnc2)cc1` was tested, and the Potency was inconclusive: 100 µM [inhibitor, partial curve, poor fit].
With `Cc1c(Cl)cccc1NS(=O)(=O)c1cn(C)c(=O)n(C)c1=O` the Potency was inconclusive: 89.1 µM [inhibitor, single point].
With `O=C(CSc1nnc(-c2ccco2)n1-c1ccccc1)Nc1c(Cl)cc(Cl)cc1C(=O)O` the Potency was inconclusive: 89.1 µM [inhibitor, single point].
With `Cc1cc(C(=O)N/N=C/c2c(CO)cnc(C)c2O)c2ccccc2n1` the Potency was “inactive”.
For `COc1ccc(C2C=C(c3cccs3)Nc3nc(CCCO)nn32)cc1` (centres undefined), the Potency was inconclusive: 39.8 µM [activator, partial curve].
`COc1ccc(Oc2nc(SC)nc3ccsc23)cc1` was tested, and the Potency was inconclusive: 22.4 µM [inhibitor, single point].
With `COc1ccc(CCC(=O)N2CCN(S(=O)(=O)c3cccc(Cl)c3)CC2)cc1` the Potency was “inactive”.
`COc1cccc(NC(=O)c2ccc(N3C(=O)C4CC=C(C)CC4C3=O)cc2)c1` (centres undefined) was tested, and the Potency was inconclusive: 100 µM [inhibitor, single point].
With `CNC(=S)NNC(=O)c1ccc(C(C)(C)C)cc1` the Potency was inconclusive: 89.1 µM [inhibitor, single point].
`O=C1CN2CCC1C/C2=C\c1ccnc2c(Cl)cccc12` (centres undefined) was tested, and the Potency was inconclusive: 25.1 µM [inhibitor, partial curve, poor fit].
`COCCNC(=O)CN1C(=O)c2cccc3cccc1c23` was tested, and the Potency was “inactive”.
For `Brc1ccc(C2=CC(c3cccs3)n3ncnc3N2)cc1` (centres undefined), the Potency was inconclusive: 39.8 µM [activator, partial curve].
In the case of `O=C(/C=C/c1ccc(N2CCC(c3ccccc3)=N2)cc1)c1ccccc1`, the activity, negative = inhibition is reported as inconclusive: 47% [activator].
In the case of `N#CCN1CCC(c2cc(-c3ccco3)n[nH]2)CC1`, the Potency is reported as inconclusive: 100 µM [inhibitor, single point].
In the case of `C#CCOCCOCCOCCNc1nc(N2CCN(C(=O)CCCCCCCCCCNC(=O)[C@H](CCCCN)n3cc(C[C@@H](C)CC)nn3)CC2)nc(N2CCN(C(=O)CCCCCCCCCCNC(=O)[C@H](CCCN=C(N)N)n3cc(C[C@@H](C)CC)nn3)CC2)n1`, the Potency is reported as inconclusive: 28.2 µM [inhibitor, single point].
In the case of `Cc1ccccc1N1CC(C(=O)Nc2ccc(S(=O)(=O)N3CCOCC3)cc2)CC1=O` (centres undefined), the Potency is reported as inconclusive: 316 µM [inhibitor, partial curve, poor fit].
With `CCNc1nc(NC(C)C)nc(Oc2ccc(=O)n(C)n2)n1` the Potency was inconclusive: 22.4 µM [inhibitor, single point].
`Fc1ccc(-c2csc(N3CCOCC3)n2)cc1` was tested, and the Potency was inconclusive: 200 µM [inhibitor, partial curve].
With `COc1ccc(N2CCN(C(=O)CCNS(=O)(=O)c3ccccc3)CC2)cc1` the Potency was inconclusive: 89.1 µM [inhibitor, single point].
For `COC(=O)Cc1ccc(NC(=S)NCCSc2ccc(C)cc2)cc1`, the Potency was “inactive”.
With `Cc1n[nH]c(C)c1Cc1c(F)cccc1Cl` the Potency was “inactive”.
With `COc1ccc(Cl)cc1NS(=O)(=O)c1cc(Cl)ccc1OC` the Potency was inconclusive: 70.8 µM [inhibitor, single point].
In the case of `Cc1ccc(NC(=O)Nc2ccno2)cc1`, the Potency is reported as inconclusive: 56.2 µM [inhibitor, partial curve, poor fit].
For `CC1CCN(CC(=O)Nc2nc(-c3ccccc3)cs2)CC1`, the Potency was inconclusive: 22.4 µM [inhibitor, partial curve].
In the case of `Cc1cccn2c(=O)c3cc(C(=O)NCCc4ccccc4)c(=N)n(CCCn4ccnc4)c3nc12`, the Potency is reported as “inactive”.
`O=C1c2cccc3c(O)ccc(c23)C(=O)N1Cc1ccccc1` was tested, and the Potency was inconclusive: 39.8 µM [activator, partial curve].
For `O=C(O)C1CCN(C(=O)CSc2nc3ccccc3c(=O)n2Cc2ccccc2)CC1`, the Potency was “inactive”.
`COc1ccc(CN2C(=O)c3cccnc3C2Nc2ccc(OC)c(Cl)c2)cc1` (centres undefined) was tested, and the Potency was “inactive”.
For `O=C(O)Cc1sc(Nc2cccc3ccccc23)nc1-c1ccc(F)cc1`, the Potency was inconclusive: 100 µM [inhibitor, single point].
In the case of `COc1ccc(/C=N/n2cncn2)cc1Cn1nc(C)c([N+](=O)[O-])c1C`, the Potency is reported as inconclusive: 25.1 µM [inhibitor, single point].
`NC(=O)Nc1n[nH]c(-c2ccccc2)n1` was tested, and the Potency was inconclusive: 89.1 µM [inhibitor, partial curve, poor fit].
With `CCOc1cccc(CNc2ccc(O)cc2)c1OCc1ccccc1Cl` the Potency was “inactive”.
`CCN(Cc1ccc(OC)c(F)c1)C(=O)CCl` was tested, and the Potency was “inactive”.
`CCN1C(=O)[C@H]2[C@@H](c3ccc(-c4ccc(OC)cc4)c(OC)c3)N[C@@](C)(C(=O)OC)[C@H]2C1=O` was tested, and the Potency was “inactive”.
For `O=C(Nc1cccc(O)c1)c1cc(-c2cccs2)on1`, the Potency was “inactive”.
With `CN(Cc1ccccc1)C(=O)CCC1CCN(C(=O)c2ccccc2C(F)(F)F)CC1` the Potency was inconclusive: 126 µM [inhibitor, single point].
`COC(CNC(=O)CN1CCN(Cc2ccccc2F)C1=O)OC` was tested, and the Potency was inconclusive: 112 µM [inhibitor, single point].
For `C[C@H](NC(=O)c1ccccc1Cl)C(=O)NCc1cccs1`, the Potency was inconclusive: 178 µM [inhibitor, single point].
For `Cc1cccc(C)c1-n1c(SCC(=O)Nc2ccc(C(=O)O)cc2)nnc1-c1cccc(S(=O)(=O)N(C)C)c1`, the activity, negative = inhibition was inconclusive: 30.7% [activator].
In the case of `CCOc1ccccc1NC(=O)C1CCCN(c2c(CC)c(C)nc3ncnn23)C1` (centres undefined), the Potency is reported as inconclusive: 50.1 µM [inhibitor, partial curve].
In the case of `Nc1ccc(-c2nc3c(ccc4ccccc43)[nH]2)cc1`, the Potency is reported as inconclusive: 100 µM [inhibitor, single point].
With `O=C(c1c[nH]c(C(=O)C(Cl)(Cl)Cl)c1)c1ccccc1F` the Potency was inconclusive: 200 µM [inhibitor, partial curve].
In the case of `O=S(=O)(c1cccs1)N1CN(Cc2ccco2)c2nc3ccccc3nc21`, the Potency is reported as inconclusive: 63.1 µM [inhibitor, single point].
In the case of `Cc1c(NC(=S)N/N=C/c2cccc(O)c2)c(=O)n(-c2ccccc2)n1C`, the Potency is reported as “inactive”.
For `O=c1c(C(c2ccc(Br)cc2)c2c(O)nc3n(c2=O)CCS3)c(O)nc2n1CCS2`, the Potency was inconclusive: 178 µM [inhibitor, partial curve, poor fit].
In the case of `N#C/C(=C\Nc1ccc2c(c1)OCCO2)c1nc(-c2ccccc2)cs1`, the Potency is reported as “inactive”.
`COc1cc(NC(=O)c2ccccc2-c2ccccc2)cc(OC)c1OC` was tested, and the Potency was inconclusive: 100 µM [inhibitor, single point].
`Cc1cccc(CS(=O)(=O)c2ncc(Cl)c(C(=O)NCc3ccc4c(c3)OCO4)n2)c1` was tested, and the Potency was inconclusive: 56.2 µM [inhibitor, partial curve, poor fit].
With `O=C1/C(=C/c2cccnc2)Oc2cc(OS(=O)(=O)c3ccc(F)cc3)ccc21` the Potency was “inactive”.
For `CCCCCCN1C=CC(=C/C=C(\C#N)C(=O)OCC)C=C1`, the Potency was inconclusive: 25.1 µM [activator, partial curve].
With `Cc1ccc(C(=O)OCC(=O)Nc2ccccc2Cl)c(O)c1` the Potency was inconclusive: 15.8 µM [inhibitor, single point].
In the case of `O=C(Nc1ccc2[nH]ccc2c1)c1ccc(F)cc1`, the Potency is reported as inconclusive: 15.8 µM [inhibitor, single point].
`CCN(CC)c1ccc(/C=C/c2cccc[n+]2C)c(OC)c1` was tested, and the Potency was inconclusive: 100 µM [activator, partial curve].
For `O=C(c1ccc(Br)cc1)N(c1ccccn1)C1CCCCC1`, the Potency was inconclusive: 31.6 µM [inhibitor, partial curve, poor fit].
`CC(=O)Nc1ccc(NC(=O)CSc2ncnc3c2cnn3Cc2ccccc2)cc1` was tested, and the Potency was inconclusive: 17.8 µM [inhibitor, single point].
`Cc1ccc(-c2cn(-c3ccccc3)c(=S)[nH]2)cc1C` was tested, and the Potency was “inactive”.
